No constants are given. Whether binding was seen depends on the method and setting. For some of these results: In cells and extracts the contact can be indirect. Some entries that bind do so weakly or less than the wild type. For some of these results: Tags and fused reporters may be left off the sequences shown. Blank lines part the entries; values can stand above or below the binder they belong to.
Tests used:
[1] = target: T1, His6-tagged NOP10 (E. coli) (human) (UniProt Q9NPE3); test: co-purification of co-expressed subunits (tandem affinity); E. coli co-expressing untagged DKC1, HA-NAF1, FLAG-NHP2 and NOP10-His6 (NAF1 intermediate); Ni-NTA, Poros Heparin, anti-HA resin with HA peptide elution, anti-FLAG agarose with FLAG peptide elution; silver stain
T1 sequence: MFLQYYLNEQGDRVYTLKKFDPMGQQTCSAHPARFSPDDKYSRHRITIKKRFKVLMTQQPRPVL

[2] = target: T2, FLAG-tagged NHP2 (E. coli) (human) (UniProt Q9NX24); test: as above
T2 sequence: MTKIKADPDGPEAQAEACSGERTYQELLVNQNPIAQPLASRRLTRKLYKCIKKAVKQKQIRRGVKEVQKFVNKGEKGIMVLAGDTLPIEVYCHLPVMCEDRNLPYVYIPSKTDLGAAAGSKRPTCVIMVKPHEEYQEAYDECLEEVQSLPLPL

[3] = target: T3, dyskerin (DKC1) (human (endogenous in NT2)) (UniProt O60832); test: co-IP; Poros-HQ fractions of NT2 Ni-FT incubated 16 hr with anti-DKC1 monoclonal antibody on Protein G Sepharose, washed with 0.6 M KCl HEMG 0.2% NP-40, peptide elution; silver stain
T3 sequence: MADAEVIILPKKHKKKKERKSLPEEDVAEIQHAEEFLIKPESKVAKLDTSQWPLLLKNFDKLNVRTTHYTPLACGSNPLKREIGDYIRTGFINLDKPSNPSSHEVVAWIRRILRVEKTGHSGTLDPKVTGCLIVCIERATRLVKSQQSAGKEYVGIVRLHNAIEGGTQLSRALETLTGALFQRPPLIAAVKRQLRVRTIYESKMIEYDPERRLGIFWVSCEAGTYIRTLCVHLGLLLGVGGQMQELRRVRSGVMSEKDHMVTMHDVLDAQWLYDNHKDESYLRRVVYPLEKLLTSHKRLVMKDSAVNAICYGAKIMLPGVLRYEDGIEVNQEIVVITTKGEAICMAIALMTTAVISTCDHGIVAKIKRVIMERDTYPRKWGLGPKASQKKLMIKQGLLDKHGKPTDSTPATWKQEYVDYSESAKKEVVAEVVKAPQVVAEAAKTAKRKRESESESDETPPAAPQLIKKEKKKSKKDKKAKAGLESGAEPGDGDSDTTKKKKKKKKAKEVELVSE

[4] = target: T2, FLAG-tagged NHP2 (E. coli) (human); test: co-purification of co-expressed subunits (tandem affinity); E. coli co-expressing untagged DKC1, FLAG-NHP2 and NOP10-His6 (heterotrimer); Ni-NTA, Poros Heparin, anti-FLAG agarose, washed at 0.7 M NaCl, FLAG peptide elution; silver stain
HA-tagged NAF1 (E. coli) = target: T4, HA-tagged NAF1 (E. coli) (UniProt Q96HR8); test: co-purification of co-expressed subunits (tandem affinity); E. coli co-expressing untagged DKC1, HA-NAF1, FLAG-NHP2 and NOP10-His6 (NAF1 intermediate); Ni-NTA, Poros Heparin, anti-HA resin with HA peptide elution, anti-FLAG agarose with FLAG peptide elution; silver stain
T4 sequence: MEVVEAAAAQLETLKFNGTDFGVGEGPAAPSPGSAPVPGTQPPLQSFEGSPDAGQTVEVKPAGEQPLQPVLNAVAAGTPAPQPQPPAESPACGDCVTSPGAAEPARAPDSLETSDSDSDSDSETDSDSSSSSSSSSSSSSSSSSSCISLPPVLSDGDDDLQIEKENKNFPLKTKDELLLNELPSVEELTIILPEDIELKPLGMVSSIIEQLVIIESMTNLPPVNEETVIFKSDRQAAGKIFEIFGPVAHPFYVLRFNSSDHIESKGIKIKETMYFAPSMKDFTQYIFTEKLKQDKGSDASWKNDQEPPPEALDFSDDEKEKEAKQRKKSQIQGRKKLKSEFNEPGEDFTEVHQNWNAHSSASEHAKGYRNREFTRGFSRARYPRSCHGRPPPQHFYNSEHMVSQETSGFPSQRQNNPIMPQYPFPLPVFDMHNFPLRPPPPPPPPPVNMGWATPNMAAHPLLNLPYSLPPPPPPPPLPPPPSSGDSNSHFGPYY

[5] = target: T2, FLAG-tagged NHP2 (E. coli) (human); test: co-purification of co-expressed subunits (tandem affinity); E. coli co-expressing untagged DKC1, HA-GAR1, FLAG-NHP2 and NOP10-His6 (holo complex); Ni-NTA, Poros Heparin, anti-HA resin with HA peptide elution, anti-FLAG agarose with FLAG peptide elution; silver stain; no detectable RNA
[6] = target: T5, FLAG-tagged NHP2 (Sf9) (human) (UniProt Q9NX24); test: co-purification of co-expressed subunits (tandem affinity); Sf9 cells co-expressing His6-DKC1 (wild type or mutant), GAR1, FLAG-NHP2, NOP10 (wild type or R34W); Ni-NTA, Heparin Sepharose (1 M NaCl eluate), anti-FLAG agarose, mock or MNase treated, washed with 0.6 M NaCl, FLAG peptide elution; silver or Coomassie stain
T5 sequence: T2 sequence

[7] = target: T1, His6-tagged NOP10 (E. coli) (human); test: co-purification of co-expressed subunits (tandem affinity); E. coli co-expressing untagged DKC1, HA-GAR1, FLAG-NHP2 and NOP10-His6 (holo complex); Ni-NTA, Poros Heparin, anti-HA resin with HA peptide elution, anti-FLAG agarose with FLAG peptide elution; silver stain; no detectable RNA

B1: HA-tagged NAF1 (E. coli) (protein, UniProt Q96HR8 1-494)
chain: T4 sequence
binding [1]: binds
binding [2]: binds

B2: NHP2 (protein, UniProt Q9NX24 1-153)
chain: T2 sequence
binding [3]: binds

B5: HA-tagged GAR1 (E. coli) (protein, UniProt Q9NY12 1-217)
chain: MSFRGGGRGGFNRGGGGGGFNRGGSSNHFRGGGGGGGGGNFRGGGRGGFGRGGGRGGFNKGQDQGPPERVVLLGEFLHPCEDDIVCKCTTDENKVPYFNAPVYLENKEQIGKVDEIFGQLRDFYFSVKLSENMKASSFKKLQKFYIDPYKLLPLQRFLPRPPGEKGPPRGGGRGGRGGGRGGGGRGGGRGGGFRGGRGGGGGGFRGGRGGGFRGRGH
binding [7]: binds
binding [5]: binds

Continued, values first:

binding [4]: binds
binding (HA-tagged NAF1 (E. coli)): binds
binding [2]: binds
binding [5]: binds
B3: untagged human DKC1 (E. coli) (protein, UniProt O60832 1-514)
chain: T3 sequence

binding [6]: binds
B4: untagged GAR1 (Sf9) (protein, UniProt Q9NY12 1-217)
chain: B5 chain
